Test results published in ChEMBL document CHEMBL4316593 (Eur J Med Chem, 2019).
This continues a long series; more values of the same kind are listed elsewhere.

What was measured:
Type in all cases: cell-based
Details in all cases: U-87MG ATCC
[1] = Inhibition of RTK/PI3K/AKT/mTOR signaling in human U87 cells assessed as down regulation of TAF5 gene expression at cytotoxic IC50 measured after 48 hrs relative to control
[2] = Inhibition of RTK/PI3K/AKT/mTOR signaling in human U87 cells assessed as down regulation of RALGAPA1 gene expression at cytotoxic IC50 measured after 48 hrs relative to control
[3] = Inhibition of RTK/PI3K/AKT/mTOR signaling in human U87 cells assessed as up regulation of alanyl-tRNA synthetase gene expression at cytotoxic IC50 measured after 48 hrs relative to control
[4] = Inhibition of RTK/PI3K/AKT/mTOR signaling in human U87 cells assessed as up regulation of ALDOA gene expression at cytotoxic IC50 measured after 48 hrs relative to control
[5] = Inhibition of RTK/PI3K/AKT/mTOR signaling in human U87 cells assessed as down regulation of SLC7A11 gene expression at cytotoxic IC50 measured after 48 hrs relative to control
[6] = Inhibition of RTK/PI3K/AKT/mTOR signaling in human U87 cells assessed as down regulation of RBM15 gene expression at cytotoxic IC50 measured after 48 hrs relative to control
[7] = Inhibition of RTK/PI3K/AKT/mTOR signaling in human U87 cells assessed as down regulation of RNF6 gene expression at cytotoxic IC50 measured after 48 hrs relative to control
[8] = Inhibition of RTK/PI3K/AKT/mTOR signaling in human U87 cells assessed as down regulation of GLB1 gene expression at cytotoxic IC50 measured after 48 hrs relative to control
[9] = Inhibition of RTK/PI3K/AKT/mTOR signaling in human U87 cells assessed as down regulation of TXNL4B gene expression at cytotoxic IC50 measured after 48 hrs relative to control
[10] = Inhibition of RTK/PI3K/AKT/mTOR signaling in human U87 cells assessed as up regulation of RB transcriptional corepressor like 2 gene expression at cytotoxic IC50 measured after 48 hrs relative to control
[11] = Inhibition of RTK/PI3K/AKT/mTOR signaling in human U87 cells assessed as up regulation of protein-glucosylgalactosylhydroxylysine glucosidase gene expression at cytotoxic IC50 measured after 48 hrs relative to control
[12] = Inhibition of RTK/PI3K/AKT/mTOR signaling in human U87 cells assessed as up regulation of CTNNAL1 gene expression at cytotoxic IC50 measured after 48 hrs relative to control
[13] = Inhibition of RTK/PI3K/AKT/mTOR signaling in human U87 cells assessed as down regulation of ETS1 gene expression at cytotoxic IC50 measured after 48 hrs relative to control
[14] = Inhibition of RTK/PI3K/AKT/mTOR signaling in human U87 cells assessed as down regulation of RAB21 gene expression at cytotoxic IC50 measured after 48 hrs relative to control
[15] = Inhibition of RTK/PI3K/AKT/mTOR signaling in human U87 cells assessed as down regulation of ZNF746 gene expression at cytotoxic IC50 measured after 48 hrs relative to control
[16] = Inhibition of RTK/PI3K/AKT/mTOR signaling in human U87 cells assessed as down regulation of ELMSAN1 gene expression at cytotoxic IC50 measured after 48 hrs relative to control
[17] = Inhibition of RTK/PI3K/AKT/mTOR signaling in human U87 cells assessed as up regulation of transmembrane protein 39B gene expression at cytotoxic IC50 measured after 48 hrs relative to control
[18] = Inhibition of RTK/PI3K/AKT/mTOR signaling in human U87 cells assessed as down regulation of CENPL gene expression at cytotoxic IC50 measured after 48 hrs relative to control
[19] = Inhibition of RTK/PI3K/AKT/mTOR signaling in human U87 cells assessed as down regulation of C6orf222 gene expression at cytotoxic IC50 measured after 48 hrs relative to control
[20] = Inhibition of RTK/PI3K/AKT/mTOR signaling in human U87 cells assessed as up regulation of cadherin 1 gene expression at cytotoxic IC50 measured after 48 hrs relative to control
[21] = Inhibition of RTK/PI3K/AKT/mTOR signaling in human U87 cells assessed as up regulation of jagunal homolog 1 gene expression at cytotoxic IC50 measured after 48 hrs relative to control
[22] = Inhibition of RTK/PI3K/AKT/mTOR signaling in human U87 cells assessed as up regulation of melanophilin gene expression at cytotoxic IC50 measured after 48 hrs relative to control
[23] = Inhibition of RTK/PI3K/AKT/mTOR signaling in human U87 cells assessed as down regulation of SFT2D2 gene expression at cytotoxic IC50 measured after 48 hrs relative to control
[24] = Inhibition of RTK/PI3K/AKT/mTOR signaling in human U87 cells assessed as up regulation of tRNA phosphotransferase 1 gene expression at cytotoxic IC50 measured after 48 hrs relative to control
[25] = Inhibition of RTK/PI3K/AKT/mTOR signaling in human U87 cells assessed as up regulation of laminin subunit gamma 3 gene expression at cytotoxic IC50 measured after 48 hrs relative to control
[26] = Inhibition of RTK/PI3K/AKT/mTOR signaling in human U87 cells assessed as up regulation of elongin BC and polycomb repressive complex 2 associated protein gene expression at cytotoxic IC50 measured after 48 hrs relative to control
[27] = Inhibition of RTK/PI3K/AKT/mTOR signaling in human U87 cells assessed as down regulation of MXD1 gene expression at cytotoxic IC50 measured after 48 hrs relative to control
[28] = Inhibition of RTK/PI3K/AKT/mTOR signaling in human U87 cells assessed as up regulation of DCTPP1 gene expression at cytotoxic IC50 measured after 48 hrs relative to control
[29] = Inhibition of RTK/PI3K/AKT/mTOR signaling in human U87 cells assessed as up regulation of WSB1 gene expression at cytotoxic IC50 measured after 48 hrs relative to control
[30] = Inhibition of RTK/PI3K/AKT/mTOR signaling in human U87 cells assessed as down regulation of ITFG1 gene expression at cytotoxic IC50 measured after 48 hrs relative to control
[31] = Inhibition of RTK/PI3K/AKT/mTOR signaling in human U87 cells assessed as down regulation of KIFC1 gene expression at cytotoxic IC50 measured after 48 hrs relative to control
[32] = Inhibition of RTK/PI3K/AKT/mTOR signaling in human U87 cells assessed as up regulation of transmembrane protein 38A gene expression at cytotoxic IC50 measured after 48 hrs relative to control

Question: Which log2FC [1] does the source give for `CC(=O)C(=NNc1ccccc1C#N)C(C)=O` here?
Answer: Its log2FC is -1.65.

Question: What about the log2FC [2] of the same molecule?
Answer: The log2FC was -1.21.

Question: And the log2FC [3]?
Answer: The log2FC was 0.955.

Question: What about the log2FC [4] of the same molecule?
Answer: The log2FC was 1.73.

Question: And the log2FC [5]?
Answer: The log2FC was -0.563.

Question: What about the log2FC [6] of the same molecule?
Answer: Its log2FC is -1.08.

Question: What about the log2FC [7] of the same molecule?
Answer: The log2FC was -0.714.

Question: What about the log2FC [8] of the same molecule?
Answer: Its log2FC is -0.648.

Question: What about the log2FC [9] of the same molecule?
Answer: Its log2FC is -0.868.

Question: And the log2FC [10]?
Answer: The log2FC was 1.03.

Question: What about the log2FC [11] of the same molecule?
Answer: The log2FC was 1.21.

Question: What about the log2FC [12] of the same molecule?
Answer: The log2FC was 0.446.

Question: And the log2FC [13]?
Answer: The log2FC was -2.07.

Question: And the log2FC [14]?
Answer: Its log2FC is -0.84.

Question: And the log2FC [15]?
Answer: The log2FC was -0.888.

Question: What about the log2FC [16] of the same molecule?
Answer: Its log2FC is -1.26.

Question: What about the log2FC [17] of the same molecule?
Answer: The log2FC was 0.797.

Question: And the log2FC [18]?
Answer: The log2FC was -1.15.

Question: And the log2FC [19]?
Answer: Its log2FC is -7.57.

Question: What about the log2FC [20] of the same molecule?
Answer: The log2FC was 1.21.

Question: And the log2FC [21]?
Answer: The log2FC was 0.679.

Question: And the log2FC [22]?
Answer: Its log2FC is 1.34.

Question: And the log2FC [23]?
Answer: The log2FC was -0.874.

Question: And the log2FC [24]?
Answer: Its log2FC is 0.833.

Question: What about the log2FC [25] of the same molecule?
Answer: Its log2FC is 1.36.

Question: What about the log2FC [26] of the same molecule?
Answer: Its log2FC is 1.2.

Question: What about the log2FC [27] of the same molecule?
Answer: The log2FC was -1.78.

Question: And the log2FC [28]?
Answer: The log2FC was 0.61.

Question: And the log2FC [29]?
Answer: Its log2FC is 0.591.

Question: And the log2FC [30]?
Answer: The log2FC was -0.718.

Question: What about the log2FC [31] of the same molecule?
Answer: Its log2FC is -0.637.

Question: What about the log2FC [32] of the same molecule?
Answer: The log2FC was 0.911.
